Paper PMC9643420

Amino acid sequences for entries named in this document (tags omitted).
UniProt Q00839: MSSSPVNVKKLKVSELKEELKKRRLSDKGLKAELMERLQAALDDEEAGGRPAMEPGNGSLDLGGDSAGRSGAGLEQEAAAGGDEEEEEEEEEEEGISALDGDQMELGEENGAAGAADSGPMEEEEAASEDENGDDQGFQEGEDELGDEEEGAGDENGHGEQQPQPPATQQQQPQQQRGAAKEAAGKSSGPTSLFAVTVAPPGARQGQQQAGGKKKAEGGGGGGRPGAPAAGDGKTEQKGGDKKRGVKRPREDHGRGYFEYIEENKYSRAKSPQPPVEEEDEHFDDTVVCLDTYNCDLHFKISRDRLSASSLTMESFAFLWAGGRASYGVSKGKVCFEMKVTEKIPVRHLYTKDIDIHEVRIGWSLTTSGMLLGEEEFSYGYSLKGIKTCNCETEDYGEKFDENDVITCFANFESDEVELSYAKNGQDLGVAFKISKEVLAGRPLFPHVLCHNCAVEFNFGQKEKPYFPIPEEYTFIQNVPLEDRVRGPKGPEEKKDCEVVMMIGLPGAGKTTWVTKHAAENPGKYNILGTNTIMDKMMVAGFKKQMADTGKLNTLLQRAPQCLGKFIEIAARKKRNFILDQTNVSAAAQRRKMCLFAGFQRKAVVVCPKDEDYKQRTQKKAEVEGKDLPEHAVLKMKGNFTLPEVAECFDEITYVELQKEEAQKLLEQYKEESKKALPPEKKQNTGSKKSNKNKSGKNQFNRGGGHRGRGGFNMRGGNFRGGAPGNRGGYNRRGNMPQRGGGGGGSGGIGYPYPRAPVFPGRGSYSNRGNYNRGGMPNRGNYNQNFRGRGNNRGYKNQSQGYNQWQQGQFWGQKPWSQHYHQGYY
UniProt P17844: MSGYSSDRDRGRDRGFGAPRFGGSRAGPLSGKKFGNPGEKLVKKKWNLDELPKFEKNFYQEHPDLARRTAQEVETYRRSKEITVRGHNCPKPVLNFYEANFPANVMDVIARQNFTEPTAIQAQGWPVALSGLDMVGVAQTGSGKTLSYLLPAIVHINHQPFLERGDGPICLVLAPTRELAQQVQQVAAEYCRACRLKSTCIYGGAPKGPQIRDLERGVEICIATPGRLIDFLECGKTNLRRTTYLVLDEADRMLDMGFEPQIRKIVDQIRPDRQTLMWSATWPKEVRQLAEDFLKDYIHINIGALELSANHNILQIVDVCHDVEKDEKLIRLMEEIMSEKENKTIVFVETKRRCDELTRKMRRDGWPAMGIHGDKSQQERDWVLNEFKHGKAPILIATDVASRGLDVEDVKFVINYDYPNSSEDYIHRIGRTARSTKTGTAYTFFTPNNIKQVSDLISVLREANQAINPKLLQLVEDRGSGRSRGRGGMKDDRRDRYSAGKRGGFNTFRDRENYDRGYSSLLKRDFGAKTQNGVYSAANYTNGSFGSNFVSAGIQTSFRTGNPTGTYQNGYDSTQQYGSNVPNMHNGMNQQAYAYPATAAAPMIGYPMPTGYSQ

Biological target: 3XFlag-tagged overexpression HNRNPU protein (heterogeneous nuclear ribonucleoprotein U) (UniProt Q00839)
Test: affinity purification with mass spectrometry; HNRNPU-Flag overexpressed in HEK293T, lysed in NP40 buffer (0.5% NP40, 50 mM Tris-HCl pH 8, 150 mM NaCl, 10% glycerol, 2 mM MgCl2, 1 mM EDTA), anti-Flag antibody overnight at 4 °C, protein G magnetic beads, whole SDS-PAGE lane sequenced by mass spectrometry

- binding: binds
Substance: endogenous DDX5 (DEAD box helicase 5) (from UniProt P17844 1-614)

These are yes or no findings as the source states them, for the method shown. Binding seen in cells or lysates may run through a third protein. A yes stands for co-enrichment or nearness to the bait. Other partners may have been found.
